# Measured values published in the supplement of paper PMC11542785.
# Counter-ions that a name gives are not always drawn. The list shows a part of the results. Many values rest on one well or one pass, so single values are uncertain.
# Tested on: Drosophila melanogaster DPAGT1 (Alg7) RNAi eye model
# Assay: eye size Z-score vs DMSO-treated DPAGT1 model flies; higher = larger eye (suppression of DPAGT1 phenotype)
# Settings: 5 uM
compound,measurement,setting,value
C#C[C@]1(O)CC[C@H]2[C@@H]3CCC4=C(CCC(=O)C4)[C@H]3CC[C@@]21C [Norethynodrel],eye size Z-score,,-0.26
NS(=O)(=O)c1cc2c(cc1Cl)NC(CC1CCCC1)NS2(=O)=O (configuration not stated) [Cyclopenthiazide],eye size Z-score,,0.15
CC(C)(C)NCC(O)c1cc(O)cc(O)c1 (configuration not stated) [Terbutaline hemisulfate],eye size Z-score,,-0.73
CCOC(=O)[N-]c1c[n+](N2CCOCC2)no1 [Molsidomine],eye size Z-score,,0.57
CC[N+](CC)(CC)CCOc1cccc(OCC[N+](CC)(CC)CC)c1OCC[N+](CC)(CC)CC [Gallamine triethiodide],eye size Z-score,,0.47
CN[C@@H]1[C@H](O[C@H]2[C@H](O[C@H]3[C@H](O)[C@@H](O)[C@H](NC(=N)N)[C@@H](O)[C@@H]3NC(=N)N)O[C@@H](C)[C@]2(O)CO)O[C@@H](CO)[C@H](O)[C@H]1O [Dihydrostreptomycin sulfate],eye size Z-score,,-0.02
NCc1ccc(S(N)(=O)=O)cc1 [Mafenide hydrochloride],eye size Z-score,,0.32
CCc1oc2ccccc2c1C(=O)c1cc(Br)c(O)c(Br)c1 [Benzbromarone],eye size Z-score,,0.33
CC/C(=C(\c1ccccc1)c1ccc(OCCN(C)C)cc1)c1ccccc1 [Tamoxifen citrate],eye size Z-score,,0.47
CC(=O)Nc1ccc(C(=O)O)cc1 [Acedoben],eye size Z-score,,-0.18
CCCCC[C@H](O)/C=C/[C@H]1[C@H](O)CC(=O)[C@@H]1CCCCCCC(=O)O [Alprostadil],eye size Z-score,,-0.5
CCN1CCC[C@H]1CNC(=O)c1c(O)c(Cl)cc(Cl)c1OC [Raclopride],eye size Z-score,,0.87
CC[C@@H]([C@H](C)O)n1ncn(-c2ccc(N3CCN(c4ccc(OC[C@@H]5CO[C@@](Cn6cncn6)(c6ccc(F)cc6F)C5)cc4)CC3)cc2)c1=O [Posaconazole hydrate],eye size Z-score,,-0.37
CCOc1ccc(NC(C)=O)cc1 [Phenacetin],eye size Z-score,,0.32
CN1CCC[C@@H]1CCO[C@](C)(c1ccccc1)c1ccc(Cl)cc1 [Clemastine fumarate],eye size Z-score,,0.29
CC(C(=O)O)c1ccc(C(=O)c2cccs2)cc1 (configuration not stated) [Suprofen],eye size Z-score,,0.12
COc1cc2ncnc(Nc3ccc(F)c(Cl)c3)c2cc1OCCCN1CCOCC1 [Gefitinib],eye size Z-score,,-0.58
COc1ccc(C(=O)c2ccccc2O)c(O)c1 [Dioxybenzone],eye size Z-score,,-1.21
CC(C)(C)NC[C@H](O)COc1ccccc1C1CCCC1 [Penbutolol sulfate],eye size Z-score,,-0.45
Nc1nc2[nH]cc(CCc3ccc(C(=O)N[C@@H](CCC(=O)O)C(=O)O)cc3)c2c(=O)[nH]1 [Pemetrexed disodium],eye size Z-score,,-0.01
CCN1CCN(Cc2ccc(Nc3ncc(F)c(-c4cc(F)c5nc(C)n(C(C)C)c5c4)n3)nc2)CC1 [Abemaciclib],eye size Z-score,,-0.25
COCCc1ccc(OCC(O)CNC(C)C)cc1 (stereo not drawn) [Metoprolol-(+)-tartrate salt],eye size Z-score,,0.3
COc1ccc(CN2CCN(C(c3ccc(F)cc3)c3ccc(F)cc3)CC2)c(OC)c1OC [Lomerizine dihydrochloride],eye size Z-score,,0.09
Cc1cnc(C(=O)O)c[n+]1[O-] [Acipimox],eye size Z-score,,0
CC(=O)Nc1cccc(O)c1 [Metacetamol],eye size Z-score,,-0.21
O=C(O)[C@H]1/C(=C/CO)O[C@@H]2CC(=O)N21 [Clavulanate potassium salt],eye size Z-score,,-0.63
O=C(OCCOCCO)c1ccccc1Nc1cccc(C(F)(F)F)c1 [Etofenamate],eye size Z-score,,0.19
OCCN1C[C@H](O)[C@@H](O)[C@H](O)[C@H]1CO [Miglitol],eye size Z-score,,1.45
Cn1cnc([N+](=O)[O-])c1Sc1ncnc2[nH]cnc12 [Azathioprine],eye size Z-score,,-0.17
CC(=O)Oc1cc2c(s1)CCN(C(C(=O)C1CC1)c1ccccc1F)C2 (configuration not stated) [Prasugrel],eye size Z-score,,0.99
CC(C)C(=O)Nc1ccc([N+](=O)[O-])c(C(F)(F)F)c1 [Flutamide],eye size Z-score,,0.33
O=C(O)CCCC[C@@H]1SC[C@@H]2NC(=O)N[C@@H]21 [Biotin],eye size Z-score,,-0.62
COCC(=O)Nc1c(I)c(C(=O)NCC(O)CO)c(I)c(C(=O)N(C)CC(O)CO)c1I (configuration not stated) [Iopromide],eye size Z-score,,0.48
CCOC(=O)Nc1ccc(NCc2ccc(F)cc2)nc1N [Flupirtine],eye size Z-score,,0.83
CC(C)=CCC1C(=O)N(c2ccccc2)N(c2ccccc2)C1=O [Feprazone],eye size Z-score,,1.02
N[C@@H](CSCCCO)C(=O)O [Fudosteine],eye size Z-score,,0.64
C[C@H](CCC(=O)O)[C@H]1CC[C@H]2[C@@H]3CC[C@@H]4C[C@H](O)CC[C@]4(C)[C@H]3CC[C@]12C [Lithocholic acid],eye size Z-score,,-0.2
CC(=O)SCC(Cc1ccccc1)C(=O)NCC(=O)OCc1ccccc1 (configuration not stated) [Racecadotril],eye size Z-score,,-0.52
COC(=O)C1=C(C)NC(C)=C(C(=O)OC(C)C)C1c1cccc2nonc12 (configuration not stated) [Isradipine],eye size Z-score,,-1.05
CN1CCC(OC(c2ccccc2)c2ccccc2)CC1 [Diphenylpyraline hydrochloride],eye size Z-score,,-0.27
O=C(Oc1cccc2cccnc12)c1ccccc1 [Benzoxiquine],eye size Z-score,,0.59
Clc1ccc(Nc2nnc(Cc3ccncc3)c3ccccc23)cc1 [Vatalanib],eye size Z-score,,0.29
O=c1[nH]cnc2c1ncn2[C@H]1CC[C@@H](CO)O1 [Didanosine],eye size Z-score,,0.4
CN(C/C=C/C#CC(C)(C)C)Cc1cccc2ccccc12 [Terbinafine],eye size Z-score,,0.26
Nc1nc(O)c2ncn(CCC(CO)CO)c2n1 [Penciclovir],eye size Z-score,,-0.01
Fc1ccc([C@@H]2CCNC[C@H]2COc2ccc3c(c2)OCO3)cc1 [Paroxetine hydrochloride],eye size Z-score,,-0.32
C[C@H]1COc2c(N3CCN(C)CC3)c(F)cc3c(=O)c(C(=O)O)cn1c23 [Levofloxacin],eye size Z-score,,0.53
CN(C)CCCN1c2ccccc2CCc2ccccc21 [Imipramine hydrochloride],eye size Z-score,,-0.19
NC(CO)C(=O)NNCc1ccc(O)c(O)c1O (configuration not stated) [Benserazide hydrochloride],eye size Z-score,,0.85
CCCC(=O)OCOC(=O)C1=C(C)NC(C)=C(C(=O)OC)C1c1cccc(Cl)c1Cl (configuration not stated) [Clevidipine],eye size Z-score,,-0.4
O=C1c2cccc3c2[C@H](CCC3)CN1[C@@H]1CN2CCC1CC2 [Palonosetron hydrochloride],eye size Z-score,,-0.07
NCC[C@H](O)C(=O)N[C@@H]1C[C@H](N)[C@@H](O[C@H]2O[C@H](CN)[C@@H](O)[C@H](O)[C@H]2O)[C@H](O)[C@H]1O[C@H]1O[C@H](CO)[C@@H](O)[C@H](N)[C@H]1O [Amikacin hydrate],eye size Z-score,,0.41
O=C1Nc2ccccc2C1(c1ccc(O)cc1)c1ccc(O)cc1 [Oxyphenisatin],eye size Z-score,,0.2
CC(C)CN(C[C@@H](O)[C@H](Cc1ccccc1)NC(=O)O[C@H]1CO[C@H]2OCC[C@H]21)S(=O)(=O)c1ccc(N)cc1 [Darunavir],eye size Z-score,female,0.04
O=C(O)CSCC(=O)NC1CCSC1=O (configuration not stated) [Erdosteine],eye size Z-score,,-0.37
CCN(CC)CCNC(=O)COc1ccc(OC)cc1 [Mefexamide hydrochloride],eye size Z-score,,0.06
Cc1nc2n(c(=O)c1CCN1CCC(c3noc4cc(F)ccc34)CC1)CCCC2O (configuration not stated) [Paliperidone],eye size Z-score,,1.86
CCOc1ccc(NC(=O)CC(C)O)cc1 (configuration not stated) [Bucetin],eye size Z-score,,0.21
Clc1ccc(C(Cn2ccnc2)OCc2csc3c(Cl)cccc23)c(Cl)c1 (configuration not stated) [Sertaconazole nitrate],eye size Z-score,,-0.4
CC(=O)OCC1=C(C(=O)O)N2C(=O)[C@@H](NC(=O)Cc3cccs3)[C@H]2SC1 [Cephalothin sodium salt],eye size Z-score,,0.19
CC1(C)S[C@@H]2[C@H](NC(=O)Cc3ccccc3)C(=O)N2[C@H]1C(=O)O [Benzathine benzylpenicillin],eye size Z-score,,-0.01
CC1(C)S[C@@H]2[C@H](NC(=O)Cc3ccccc3)C(=O)N2[C@H]1C(=O)O [Benzylpenicillin sodium],eye size Z-score,,0.04
CCCCc1nc(Cl)c(CO)n1Cc1ccc(-c2ccccc2-c2nnn[nH]2)cc1 [Losartan],eye size Z-score,,-0.24
O=C1CCC(N2C(=O)c3ccccc3C2=O)C(=O)N1 (configuration not stated) [Thalidomide],eye size Z-score,,0.34
O=C1NCCN1CCN1CCC(c2cn(-c3ccc(F)cc3)c3ccc(Cl)cc23)CC1 [Sertindole],eye size Z-score,,0.33
O=C1[C@@H]2[C@H]3CC[C@H](C3)[C@@H]2C(=O)N1CCCCN1CCN(c2ncccn2)CC1 [Tandospirone],eye size Z-score,,-1.06
O=C1OC(CN2CCOCC2)CN1/N=C/c1ccc([N+](=O)[O-])o1 (configuration not stated) [Furaltadone hydrochloride],eye size Z-score,,-0.61
Cc1ccsc1C(=CCCN1CCC[C@@H](C(=O)O)C1)c1sccc1C [Tiagabine hydrochloride],eye size Z-score,,0.38
CNCCCN1c2ccccc2CCc2ccccc21 [Desipramine hydrochloride],eye size Z-score,,-1.1
CCOc1cc(N)c(Cl)cc1C(=O)NCC1CN(Cc2ccc(F)cc2)CCO1 (configuration not stated) [Mosapride],eye size Z-score,,-0.13
CCC(C)n1ncn(-c2ccc(N3CCN(c4ccc(OCC5COC(Cn6cncn6)(c6ccc(Cl)cc6Cl)O5)cc4)CC3)cc2)c1=O (configuration not stated) [Itraconazole],eye size Z-score,,-0.56
Cc1cccc(Nc2ccccc2C(=O)O)c1C [Mefenamic acid],eye size Z-score,,0.36
C[n+]1ccccc1/C=N/O [Pralidoxime chloride],eye size Z-score,,0.01
C[C@H]1[C@H](OC(=O)CCC(=O)O)O[C@@H]2O[C@@]3(C)CC[C@H]4[C@H](C)CC[C@@H]1[C@@]24OO3 [Artesunate],eye size Z-score,,0.03
CCCCCCCCCCCCCCCCCCCCCC(=O)Nc1ccn([C@@H]2O[C@H](CO)[C@@H](O)[C@@H]2O)c(=O)n1 [Enocitabine],eye size Z-score,,1.79
CC(C)NCC(O)c1cc(O)cc(O)c1 (configuration not stated) [Metaproterenol sulfate],eye size Z-score,,1.24
CC(C)NCC(O)COc1cccc2[nH]c3ccccc3c12 (configuration not stated) [Carazolol],eye size Z-score,,0.96

# Taken from the results shown (24 entries):
compound,measurement,setting,value
CC[C@@H]([C@H](C)O)n1ncn(-c2ccc(N3CCN(c4ccc(OC[C@@H]5CO[C@@](Cn6cncn6)(c6ccc(F)cc6F)C5)cc4)CC3)cc2)c1=O [Posaconazole hydrate],eye size Z-score,,-0.37
CCOc1ccc(NC(C)=O)cc1 [Phenacetin],eye size Z-score,,0.32
CN1CCC[C@@H]1CCO[C@](C)(c1ccccc1)c1ccc(Cl)cc1 [Clemastine fumarate],eye size Z-score,,0.29
CC(C(=O)O)c1ccc(C(=O)c2cccs2)cc1 (configuration not stated) [Suprofen],eye size Z-score,,0.12
COc1cc2ncnc(Nc3ccc(F)c(Cl)c3)c2cc1OCCCN1CCOCC1 [Gefitinib],eye size Z-score,,-0.58
COc1ccc(C(=O)c2ccccc2O)c(O)c1 [Dioxybenzone],eye size Z-score,,-1.21
CC(C)(C)NC[C@H](O)COc1ccccc1C1CCCC1 [Penbutolol sulfate],eye size Z-score,,-0.45
Nc1nc2[nH]cc(CCc3ccc(C(=O)N[C@@H](CCC(=O)O)C(=O)O)cc3)c2c(=O)[nH]1 [Pemetrexed disodium],eye size Z-score,,-0.01
CCN1CCN(Cc2ccc(Nc3ncc(F)c(-c4cc(F)c5nc(C)n(C(C)C)c5c4)n3)nc2)CC1 [Abemaciclib],eye size Z-score,,-0.25
COCCc1ccc(OCC(O)CNC(C)C)cc1 (stereo not drawn) [Metoprolol-(+)-tartrate salt],eye size Z-score,,0.3
COc1ccc(CN2CCN(C(c3ccc(F)cc3)c3ccc(F)cc3)CC2)c(OC)c1OC [Lomerizine dihydrochloride],eye size Z-score,,0.09
Cc1cnc(C(=O)O)c[n+]1[O-] [Acipimox],eye size Z-score,,0
CC(=O)Nc1cccc(O)c1 [Metacetamol],eye size Z-score,,-0.21
O=C(O)[C@H]1/C(=C/CO)O[C@@H]2CC(=O)N21 [Clavulanate potassium salt],eye size Z-score,,-0.63
O=C(OCCOCCO)c1ccccc1Nc1cccc(C(F)(F)F)c1 [Etofenamate],eye size Z-score,,0.19
OCCN1C[C@H](O)[C@@H](O)[C@H](O)[C@H]1CO [Miglitol],eye size Z-score,,1.45
Cn1cnc([N+](=O)[O-])c1Sc1ncnc2[nH]cnc12 [Azathioprine],eye size Z-score,,-0.17
CC(=O)Oc1cc2c(s1)CCN(C(C(=O)C1CC1)c1ccccc1F)C2 (configuration not stated) [Prasugrel],eye size Z-score,,0.99
CC(C)C(=O)Nc1ccc([N+](=O)[O-])c(C(F)(F)F)c1 [Flutamide],eye size Z-score,,0.33
O=C(O)CCCC[C@@H]1SC[C@@H]2NC(=O)N[C@@H]21 [Biotin],eye size Z-score,,-0.62
COCC(=O)Nc1c(I)c(C(=O)NCC(O)CO)c(I)c(C(=O)N(C)CC(O)CO)c1I (configuration not stated) [Iopromide],eye size Z-score,,0.48
CCOC(=O)Nc1ccc(NCc2ccc(F)cc2)nc1N [Flupirtine],eye size Z-score,,0.83
CC(C)=CCC1C(=O)N(c2ccccc2)N(c2ccccc2)C1=O [Feprazone],eye size Z-score,,1.02
N[C@@H](CSCCCO)C(=O)O [Fudosteine],eye size Z-score,,0.64

# Quoted at random: 2 records from the list
compound,measurement,setting,value
CC1(C)S[C@@H]2[C@H](NC(=O)Cc3ccccc3)C(=O)N2[C@H]1C(=O)O [Benzylpenicillin sodium],eye size Z-score,,0.04
COCCc1ccc(OCC(O)CNC(C)C)cc1 (stereo not drawn) [Metoprolol-(+)-tartrate salt],eye size Z-score,,0.3
